Measurements from publication PMC11012097.
These are yes or no findings as the source states them, for the method shown. For some of these results: In cells and extracts the contact can be indirect. Some binding calls cover weakened binding; strength is not graded here. For some of these results: Where a sequence is shown, tags or fusion partners need not be part of it. One block for each molecule: values may come before it.

By UniProt entry, the sequences of proteins in these tests, tags left out. Where a name states a change or a piece, a line headed by the entry shows the natural chain unless it says otherwise. Residues count along the entry.
UniProt P31001: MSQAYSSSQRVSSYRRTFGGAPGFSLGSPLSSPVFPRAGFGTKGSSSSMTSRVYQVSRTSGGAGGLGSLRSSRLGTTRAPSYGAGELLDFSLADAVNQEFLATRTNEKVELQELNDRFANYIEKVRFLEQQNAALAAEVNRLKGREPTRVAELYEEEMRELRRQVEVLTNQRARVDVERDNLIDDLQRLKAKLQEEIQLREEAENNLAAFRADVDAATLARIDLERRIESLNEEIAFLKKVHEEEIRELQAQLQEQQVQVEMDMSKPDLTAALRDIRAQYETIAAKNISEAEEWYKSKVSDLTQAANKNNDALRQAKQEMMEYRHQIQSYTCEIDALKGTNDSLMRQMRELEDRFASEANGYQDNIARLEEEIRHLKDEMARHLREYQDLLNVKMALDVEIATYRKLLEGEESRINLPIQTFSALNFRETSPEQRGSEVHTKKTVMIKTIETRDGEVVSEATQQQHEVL
amino terminal domain (1–103 aa) of mouse desmin: residues 1-103 of P31001
UniProt O75306, residues 34-463: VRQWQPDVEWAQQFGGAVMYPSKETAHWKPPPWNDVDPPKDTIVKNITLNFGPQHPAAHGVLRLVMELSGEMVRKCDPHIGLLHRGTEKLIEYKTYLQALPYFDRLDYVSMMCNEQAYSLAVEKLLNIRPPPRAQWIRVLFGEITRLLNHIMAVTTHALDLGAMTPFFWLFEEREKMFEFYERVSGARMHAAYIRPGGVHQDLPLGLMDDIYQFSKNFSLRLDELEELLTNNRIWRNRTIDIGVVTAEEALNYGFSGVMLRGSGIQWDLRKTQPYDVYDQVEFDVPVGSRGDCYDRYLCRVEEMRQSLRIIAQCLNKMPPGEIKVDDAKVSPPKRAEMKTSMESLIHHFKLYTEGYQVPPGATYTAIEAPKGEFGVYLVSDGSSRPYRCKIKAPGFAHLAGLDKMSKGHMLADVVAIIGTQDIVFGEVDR
UniProt Q91WD5, residues 34-463: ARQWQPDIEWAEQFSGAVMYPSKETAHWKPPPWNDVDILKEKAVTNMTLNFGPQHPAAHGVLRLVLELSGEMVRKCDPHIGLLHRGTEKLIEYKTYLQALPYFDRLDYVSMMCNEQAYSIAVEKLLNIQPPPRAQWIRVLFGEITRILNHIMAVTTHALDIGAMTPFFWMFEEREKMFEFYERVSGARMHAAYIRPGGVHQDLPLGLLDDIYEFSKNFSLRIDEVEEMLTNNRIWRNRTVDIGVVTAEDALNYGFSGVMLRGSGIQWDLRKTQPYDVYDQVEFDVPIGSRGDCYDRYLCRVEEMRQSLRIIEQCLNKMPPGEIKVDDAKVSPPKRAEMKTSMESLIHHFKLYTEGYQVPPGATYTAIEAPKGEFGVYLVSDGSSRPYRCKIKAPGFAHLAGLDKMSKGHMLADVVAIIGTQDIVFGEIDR

Experiments:
GST–desmin = GST–desmin (UniProt P31001); experiment: pull-down; GST or GST–desmin on glutathione Sepharose mixed with 1 mg total protein cardiac extract of Des−/− mice, room temperature 2 h; Western blot with anti-NDUFS2; only the target purified
[1] = molecular target: T1, GST–saposin D fragment 412–524 aa (human) (UniProt P07602); experiment: pull-down; GST, GST–NDUFS2 or GST–saposin D on glutathione Sepharose mixed with total extracts of transfected COS-7 cells, room temperature 2 h; Western blot with anti-desmin; only the target purified
T1 sequence: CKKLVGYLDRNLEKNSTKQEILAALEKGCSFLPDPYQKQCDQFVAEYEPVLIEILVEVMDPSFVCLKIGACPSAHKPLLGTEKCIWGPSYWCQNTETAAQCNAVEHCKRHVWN

GST–NDUFS2 = GST–NDUFS2 (UniProt O75306); experiment: as above
[2] = molecular target: amino terminal domain (1–103 aa) of mouse desmin (mouse) (UniProt P31001); experiment: two-hybrid; Matchmaker GAL-4 system; desmin head as bait in pGBKT7 against a human heart muscle cDNA library; positives retested by co-transformation into AH109 on SD/–Ade/–His/–Leu/–Trp/X-α-Gal plates

binding (GST–desmin): binds
Molecule: NDUFS2 of total protein cardiac extracts from desmin null (Des−/−) mice (from UniProt Q91WD5 34-463)

binding [1]: no binding
binding (GST–NDUFS2): no binding
Molecule: DesminΔ1-48 (from UniProt P31001 49-469) (domain or fragment)

binding [2]: binds
B1: clone-145, pro-saposin D fragment 1337–2839 bp (domain or fragment, UniProt P07602-1 412-524)
chain: T1 sequence
